Target: interaction between cTnC and switch peptide of cTnI (cTnISP) (Homo sapiens, UniProt P63316)
Test: Fluorescence polarization HTS and dose-response, cTnC/FAM-cTnISP
Type: binding
Conditions: cTnISP primary screen, ENZO Screenwell library, single concentration 50 μmol/L

Clc1ccc(CSC(Cn2ccnc2)c2ccc(Cl)cc2Cl)cc1 (stereo not shown) [Sulconazole Nitrate]
FP (mP): 87.6 mP

Source: paper PMC10063609, “Discovery of novel cardiac troponin activators using fluorescence polarization-based high throughput screening assays” (Scientific Reports, 2023)
